# Screen size: about 340,000 compounds; about 170 (0.05%) were called active. Inconclusive means that the source gave no clear call. Such entries were picked first, then a sample of the others. The call rests on the fitted dose curve; in most records, active means well fitted inhibition curve with a large enough effect in the signal ratio, with a control signal flat (not every such curve was filed as active); inconclusive means small, poorly fitted or top-dose-only effect, or effect the other way, or a change in a side signal; inactive means flat fitted curve, though single readings scatter; the % refers to the signal ratio. Where the call is inconclusive, the potency comes from a doubtful curve fit.
# Assay: qHTS Assay to Find Inhibitors of Chronic Active B-Cell Receptor Signaling;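 on activity change, negative = inhibition: plate controls were basal doxycycline-induced cells for no effect and cells given 10 µM MG132 for full effect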
# Settings: ABC-DLBCL IkBa-CBG/CBR reporter, luminescence ratio (green luciferase fused to IkBa over red control in TMD8 lymphoma cells), 4 h; activity change, negative = inhibition: at 46.1 µM (top of the series)
# In short: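 TMD8 ABC-DLBCL cells carrying doxycycline-inducible green luciferase fused to IkappaBalpha plus unfused red luciferase were exposed to compounds (up to 46 uM) for 4 hrs at 37C. Activity came from the overlap-corrected green/red luminescence ratio.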
# Potency means the concentration at half of the fitted maximal effect.
SMILES,"activity change, negative = inhibition",Potency
C[C@H](CO)N1C[C@H](C)[C@@H](CN(C)Cc2ccc(-c3ccccc3)cc2)Oc2c(NC(=O)Cc3ccccc3)cccc2C1=O,inconclusive: 4.93%,
CN(CC(=O)NC(=O)NCc1ccccc1)Cc1ccc(Cl)c(Cl)c1,inactive: -0.131%,
Cc1ccc(NS(=O)(=O)c2cc([N+](=O)[O-])ccc2NNC(=S)Nc2cc(C)ccc2C)c(C)c1,inconclusive: 15.5%,
CCOC(=O)C1(CCOc2ccccc2)CCN(Cc2cccc3c2OCO3)CC1,,"inconclusive: 31.6 µM [falling, single point]"
CC(C)c1cc(C(=O)N/N=C/C=C/c2ccccc2)n[nH]1,inconclusive: 16.5%,
COc1ccc(NC(=O)COCc2cc(-c3ccc4c(c3)OCO4)on2)cc1,,"inconclusive: 2.82 µM [falling, partial curve, poor fit]"
CCOc1ccc(-c2n[nH]c(=S)c3ccccc23)cc1,inconclusive: 1.75%,
Cn1ncc2c1ncn1nc(CCc3ccccc3)nc21,inconclusive: 2.48%,
CCC1CCC2(CC1)SCC(=O)N2c1ccccc1 (stereo unspecified),inconclusive: -0.313%,
NC(=O)CN1C(=O)C(O)(CC(=O)/C=C\c2ccc3c(c2)OCO3)c2ccccc21 (stereo unspecified),inconclusive: -3.96%,
CCCn1nc2cc(C(=O)NCC34CC5CC(CC(C5)C3)C4)ccc2c1OCC,inconclusive: 5.38%,
CC(C)n1cnc2cc(NC(=O)c3ccco3)ccc21,,"inconclusive: 22.4 µM [falling, single point]"
Cn1nc(-c2ccccc2)c(C(=O)Nc2ccc(Cl)cc2)c1Cl,inconclusive: 2.66%,
O=C(OCc1c(-c2ccccc2)ncc2ccccc12)c1ccc(F)cc1,inconclusive: -14.6%,
O=C(O)c1ccc(NC(=O)c2ccc3c(c2)C(=O)N(c2ccccc2)C3=O)cc1,,"inconclusive: 22.4 µM [falling, single point]"
O=C(c1ccc(Br)o1)N1CCN(C/C=C/c2ccccc2)CC1,inconclusive: 11.3%,
Cc1nn(C)cc1/C=C/C(=O)c1cccs1,,"inconclusive: 20.6 µM [falling, partial curve]"
COc1ccc(C(=O)CSc2ccccc2C(=O)O)cc1,inconclusive: 18.6%,
CCCCCn1nc(C(=O)N2CCc3ccccc32)c2ccccc2c1=O,inconclusive: -7.62%,
O=C(Nc1nccs1)C1CC(=O)N(Cc2ccco2)C1 (stereo unspecified),inconclusive: -14.1%,
C#CCOCCOCCOCCNc1nc(N2CCN(C(=O)CCCCCCCCCCNC(=O)[C@@H](CCSC)n3cc(CCO)nn3)CC2)nc(N2CCN(C(=O)CCCCCCCCCCNC(=O)[C@H]([C@@H](C)CC)n3cc(CCCCN=C(N)N)nn3)CC2)n1,inconclusive: 11.1%,

# One compound at a time (already shown):
# O=C(c1ccc(Br)o1)N1CCN(C/C=C/c2ccccc2)CC1 is listed as activity change, negative = inhibition: inconclusive: 11.3%
# COc1ccc(C(=O)CSc2ccccc2C(=O)O)cc1 is listed as activity change, negative = inhibition: inconclusive: 18.6%
